Results published in the supplement of paper PMC10849652.
The other results are listed elsewhere or left out.

Protein sequences, listed by entry. Tags and fused reporters are not part of them. Lines headed by an entry give the natural chain unless they say otherwise; changes in a name come on top.
UniProt Q92681: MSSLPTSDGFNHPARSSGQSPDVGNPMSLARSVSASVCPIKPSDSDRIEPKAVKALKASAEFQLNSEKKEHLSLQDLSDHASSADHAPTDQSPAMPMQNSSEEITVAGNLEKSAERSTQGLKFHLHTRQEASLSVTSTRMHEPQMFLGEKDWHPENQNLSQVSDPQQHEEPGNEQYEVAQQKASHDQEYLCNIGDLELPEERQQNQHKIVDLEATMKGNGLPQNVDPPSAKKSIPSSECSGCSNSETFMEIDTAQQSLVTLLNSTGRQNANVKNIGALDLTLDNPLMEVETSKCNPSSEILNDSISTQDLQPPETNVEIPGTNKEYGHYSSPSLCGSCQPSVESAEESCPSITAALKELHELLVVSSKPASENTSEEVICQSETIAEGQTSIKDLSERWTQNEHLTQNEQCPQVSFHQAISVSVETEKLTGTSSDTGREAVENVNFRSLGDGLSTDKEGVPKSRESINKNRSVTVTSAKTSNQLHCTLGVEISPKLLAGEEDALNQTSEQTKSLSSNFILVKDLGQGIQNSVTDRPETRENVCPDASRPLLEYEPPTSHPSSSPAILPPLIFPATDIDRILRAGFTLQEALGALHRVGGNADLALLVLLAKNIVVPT
UniProt Q86WX3: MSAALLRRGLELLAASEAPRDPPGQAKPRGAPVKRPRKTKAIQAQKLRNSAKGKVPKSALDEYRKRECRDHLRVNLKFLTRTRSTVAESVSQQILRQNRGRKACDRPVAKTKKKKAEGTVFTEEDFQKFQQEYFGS
UniProt Q9NYV6: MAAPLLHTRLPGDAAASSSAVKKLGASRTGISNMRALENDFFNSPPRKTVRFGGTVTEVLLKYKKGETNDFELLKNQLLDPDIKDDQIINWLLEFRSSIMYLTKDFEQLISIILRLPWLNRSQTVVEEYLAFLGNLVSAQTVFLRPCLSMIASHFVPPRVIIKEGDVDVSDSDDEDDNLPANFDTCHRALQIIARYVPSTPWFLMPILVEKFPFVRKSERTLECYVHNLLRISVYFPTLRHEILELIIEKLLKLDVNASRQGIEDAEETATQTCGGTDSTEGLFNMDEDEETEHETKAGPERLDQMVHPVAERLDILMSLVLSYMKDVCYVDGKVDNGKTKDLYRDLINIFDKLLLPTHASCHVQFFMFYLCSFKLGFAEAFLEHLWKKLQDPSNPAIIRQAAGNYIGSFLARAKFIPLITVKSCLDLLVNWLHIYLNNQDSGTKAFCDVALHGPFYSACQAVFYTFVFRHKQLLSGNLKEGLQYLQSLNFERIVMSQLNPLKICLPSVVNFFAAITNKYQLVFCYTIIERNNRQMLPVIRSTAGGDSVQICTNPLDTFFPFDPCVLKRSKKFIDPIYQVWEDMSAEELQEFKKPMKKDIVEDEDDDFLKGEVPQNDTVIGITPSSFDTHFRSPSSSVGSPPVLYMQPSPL
UniProt Q9BWD3: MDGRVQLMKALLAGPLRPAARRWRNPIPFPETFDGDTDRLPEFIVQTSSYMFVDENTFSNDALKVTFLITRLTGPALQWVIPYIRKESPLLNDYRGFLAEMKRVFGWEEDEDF
UniProt P60903, whole entry, looked up: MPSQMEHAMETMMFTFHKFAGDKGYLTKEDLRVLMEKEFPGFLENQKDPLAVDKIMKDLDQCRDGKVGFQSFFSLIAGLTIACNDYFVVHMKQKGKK
UniProt Q86SG5: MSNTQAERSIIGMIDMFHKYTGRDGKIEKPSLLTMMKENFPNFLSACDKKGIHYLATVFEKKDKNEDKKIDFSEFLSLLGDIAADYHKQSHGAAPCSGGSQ
UniProt Q7L099: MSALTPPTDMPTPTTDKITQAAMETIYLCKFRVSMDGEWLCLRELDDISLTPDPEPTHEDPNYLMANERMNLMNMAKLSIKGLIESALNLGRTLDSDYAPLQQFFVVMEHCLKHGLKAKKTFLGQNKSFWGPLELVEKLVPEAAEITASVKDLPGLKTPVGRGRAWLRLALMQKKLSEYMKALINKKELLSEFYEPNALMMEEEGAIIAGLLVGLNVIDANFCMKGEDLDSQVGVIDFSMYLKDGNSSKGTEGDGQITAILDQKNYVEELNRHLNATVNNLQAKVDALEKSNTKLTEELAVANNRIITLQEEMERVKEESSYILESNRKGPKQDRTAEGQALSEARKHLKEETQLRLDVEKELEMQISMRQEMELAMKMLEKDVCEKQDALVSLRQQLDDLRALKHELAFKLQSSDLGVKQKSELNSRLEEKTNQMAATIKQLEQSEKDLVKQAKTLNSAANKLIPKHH
UniProt P26447: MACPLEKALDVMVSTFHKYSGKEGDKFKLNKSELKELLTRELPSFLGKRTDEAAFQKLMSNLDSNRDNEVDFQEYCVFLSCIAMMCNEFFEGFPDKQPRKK
UniProt Q96CM3: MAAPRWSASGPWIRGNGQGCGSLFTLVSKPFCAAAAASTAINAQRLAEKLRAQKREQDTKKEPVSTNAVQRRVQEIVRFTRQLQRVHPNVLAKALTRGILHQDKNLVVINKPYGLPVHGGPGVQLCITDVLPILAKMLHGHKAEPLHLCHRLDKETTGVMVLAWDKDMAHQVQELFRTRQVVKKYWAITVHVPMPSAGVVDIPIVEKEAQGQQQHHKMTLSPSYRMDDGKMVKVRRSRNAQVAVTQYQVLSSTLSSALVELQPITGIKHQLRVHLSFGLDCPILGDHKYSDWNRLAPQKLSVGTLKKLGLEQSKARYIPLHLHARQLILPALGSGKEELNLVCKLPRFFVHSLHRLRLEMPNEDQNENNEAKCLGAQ
UniProt P28702: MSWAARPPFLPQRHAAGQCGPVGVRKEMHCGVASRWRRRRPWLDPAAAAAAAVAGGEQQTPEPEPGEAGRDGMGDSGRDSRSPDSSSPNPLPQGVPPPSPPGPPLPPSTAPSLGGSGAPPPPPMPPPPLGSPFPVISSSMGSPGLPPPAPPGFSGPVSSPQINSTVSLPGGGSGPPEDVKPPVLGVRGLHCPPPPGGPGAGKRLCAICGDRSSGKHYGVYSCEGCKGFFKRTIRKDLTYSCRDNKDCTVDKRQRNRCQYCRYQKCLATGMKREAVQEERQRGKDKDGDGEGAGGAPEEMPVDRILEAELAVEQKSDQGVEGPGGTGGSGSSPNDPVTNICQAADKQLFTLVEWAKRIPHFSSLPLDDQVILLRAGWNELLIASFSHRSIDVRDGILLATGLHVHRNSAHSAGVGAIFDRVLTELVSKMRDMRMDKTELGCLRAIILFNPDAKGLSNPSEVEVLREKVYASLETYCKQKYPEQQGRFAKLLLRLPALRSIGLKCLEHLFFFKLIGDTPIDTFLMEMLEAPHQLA
UniProt A6ZKI3: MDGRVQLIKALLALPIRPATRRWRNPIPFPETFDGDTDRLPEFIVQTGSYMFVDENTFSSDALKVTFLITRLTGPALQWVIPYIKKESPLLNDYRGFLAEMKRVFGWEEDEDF
UniProt Q9BZR6: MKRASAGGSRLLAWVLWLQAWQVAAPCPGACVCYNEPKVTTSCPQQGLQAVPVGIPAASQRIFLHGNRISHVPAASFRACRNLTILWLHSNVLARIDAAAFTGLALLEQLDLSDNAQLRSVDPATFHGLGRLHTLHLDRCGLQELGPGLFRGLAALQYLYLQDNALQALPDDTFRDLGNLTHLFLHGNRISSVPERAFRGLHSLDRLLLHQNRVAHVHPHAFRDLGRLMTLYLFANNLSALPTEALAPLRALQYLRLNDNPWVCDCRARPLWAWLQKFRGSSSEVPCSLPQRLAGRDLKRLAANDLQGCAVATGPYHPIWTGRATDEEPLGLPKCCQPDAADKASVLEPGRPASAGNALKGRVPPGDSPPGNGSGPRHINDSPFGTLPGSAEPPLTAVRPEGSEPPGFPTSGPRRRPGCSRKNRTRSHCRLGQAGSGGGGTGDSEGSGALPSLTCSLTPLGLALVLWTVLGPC
UniProt Q96FQ6: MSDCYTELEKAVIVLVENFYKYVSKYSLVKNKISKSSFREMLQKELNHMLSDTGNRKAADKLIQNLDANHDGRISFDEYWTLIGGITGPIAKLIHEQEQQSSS
UniProt Q6P087: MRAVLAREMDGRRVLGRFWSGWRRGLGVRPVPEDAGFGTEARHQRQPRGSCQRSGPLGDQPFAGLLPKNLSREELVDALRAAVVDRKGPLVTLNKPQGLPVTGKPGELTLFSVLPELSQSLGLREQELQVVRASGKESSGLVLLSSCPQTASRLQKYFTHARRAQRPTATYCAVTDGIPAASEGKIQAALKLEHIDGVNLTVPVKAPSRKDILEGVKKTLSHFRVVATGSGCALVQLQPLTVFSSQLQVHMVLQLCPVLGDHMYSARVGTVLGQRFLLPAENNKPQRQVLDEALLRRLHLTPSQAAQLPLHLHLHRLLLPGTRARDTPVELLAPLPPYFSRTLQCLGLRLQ
UniProt Q9NQC3: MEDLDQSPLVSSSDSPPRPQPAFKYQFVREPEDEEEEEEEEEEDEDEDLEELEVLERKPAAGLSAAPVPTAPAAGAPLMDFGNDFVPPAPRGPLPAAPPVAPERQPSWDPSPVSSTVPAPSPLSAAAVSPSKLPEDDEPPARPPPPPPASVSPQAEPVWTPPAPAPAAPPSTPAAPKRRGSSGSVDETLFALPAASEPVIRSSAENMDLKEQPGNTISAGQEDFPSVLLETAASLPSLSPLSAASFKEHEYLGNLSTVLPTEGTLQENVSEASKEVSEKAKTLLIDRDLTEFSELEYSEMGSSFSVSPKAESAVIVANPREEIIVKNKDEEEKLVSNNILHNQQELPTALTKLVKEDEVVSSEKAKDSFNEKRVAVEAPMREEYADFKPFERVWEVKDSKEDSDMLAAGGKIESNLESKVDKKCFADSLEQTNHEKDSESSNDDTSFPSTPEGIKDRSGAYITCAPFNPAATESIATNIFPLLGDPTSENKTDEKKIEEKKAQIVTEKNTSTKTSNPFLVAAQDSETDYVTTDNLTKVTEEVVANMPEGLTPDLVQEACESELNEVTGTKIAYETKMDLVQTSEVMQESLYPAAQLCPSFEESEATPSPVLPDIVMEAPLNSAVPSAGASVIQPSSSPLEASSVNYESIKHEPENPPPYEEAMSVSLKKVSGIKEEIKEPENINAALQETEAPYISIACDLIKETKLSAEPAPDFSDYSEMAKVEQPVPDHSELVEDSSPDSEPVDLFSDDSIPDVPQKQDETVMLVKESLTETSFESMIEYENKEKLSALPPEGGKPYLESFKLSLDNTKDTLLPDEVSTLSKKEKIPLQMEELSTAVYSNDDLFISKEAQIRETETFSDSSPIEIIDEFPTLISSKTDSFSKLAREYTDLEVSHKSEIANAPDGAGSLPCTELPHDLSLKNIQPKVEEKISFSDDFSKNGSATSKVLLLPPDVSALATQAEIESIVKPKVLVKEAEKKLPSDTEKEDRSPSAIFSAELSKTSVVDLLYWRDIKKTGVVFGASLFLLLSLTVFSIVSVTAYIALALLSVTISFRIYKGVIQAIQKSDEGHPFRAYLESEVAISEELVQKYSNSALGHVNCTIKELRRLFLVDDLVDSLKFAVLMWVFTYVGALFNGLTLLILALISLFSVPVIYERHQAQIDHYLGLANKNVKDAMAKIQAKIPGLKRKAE
UniProt Q9Y3V2: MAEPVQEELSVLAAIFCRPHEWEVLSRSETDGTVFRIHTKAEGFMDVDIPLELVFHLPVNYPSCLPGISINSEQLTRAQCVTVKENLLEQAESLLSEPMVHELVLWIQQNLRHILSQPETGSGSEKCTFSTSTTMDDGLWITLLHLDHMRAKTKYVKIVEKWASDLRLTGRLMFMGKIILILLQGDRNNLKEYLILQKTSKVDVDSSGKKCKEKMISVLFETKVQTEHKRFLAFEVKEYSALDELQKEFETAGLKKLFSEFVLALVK
UniProt Q96C34: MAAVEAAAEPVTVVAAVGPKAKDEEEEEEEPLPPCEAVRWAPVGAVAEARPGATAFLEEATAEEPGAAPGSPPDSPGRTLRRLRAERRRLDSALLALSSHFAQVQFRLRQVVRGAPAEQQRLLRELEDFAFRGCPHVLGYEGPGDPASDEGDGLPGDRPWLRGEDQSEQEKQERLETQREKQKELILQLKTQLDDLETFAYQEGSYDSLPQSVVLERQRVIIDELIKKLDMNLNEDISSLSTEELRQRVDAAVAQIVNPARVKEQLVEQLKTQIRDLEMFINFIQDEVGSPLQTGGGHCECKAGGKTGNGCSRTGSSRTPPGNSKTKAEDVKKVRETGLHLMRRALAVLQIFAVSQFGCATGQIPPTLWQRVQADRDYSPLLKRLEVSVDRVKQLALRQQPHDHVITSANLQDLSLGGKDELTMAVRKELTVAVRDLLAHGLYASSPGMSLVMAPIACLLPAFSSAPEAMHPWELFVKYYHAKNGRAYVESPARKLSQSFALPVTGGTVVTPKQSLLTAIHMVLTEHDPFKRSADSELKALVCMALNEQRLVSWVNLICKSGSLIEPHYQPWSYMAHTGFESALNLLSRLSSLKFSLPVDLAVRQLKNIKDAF
UniProt Q96EU6: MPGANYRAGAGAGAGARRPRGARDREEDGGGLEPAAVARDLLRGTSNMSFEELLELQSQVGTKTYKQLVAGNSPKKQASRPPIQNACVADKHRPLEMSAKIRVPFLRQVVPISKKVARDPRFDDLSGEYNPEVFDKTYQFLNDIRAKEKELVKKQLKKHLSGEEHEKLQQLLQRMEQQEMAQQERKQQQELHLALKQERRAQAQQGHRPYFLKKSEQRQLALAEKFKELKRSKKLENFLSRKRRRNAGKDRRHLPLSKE

How the values were obtained:
Experiment in all cases: log2 fold change, soluble protein after heating vs DMSO (PISA); higher = thermal stabilisation; K562 lysate, 10 uM; active = over 0.2 and 3.5 SD of the protein, either way, in both replicates (recomputed)
[1] = compound: C1=CC2=NC=CN=C2C=C1/C=C/3\C(=O)NC(=O)S3
Summary of the method: (§1)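 Thermal stability, expressed as log-two fold change relative to solvent controls, is given from duplicates. Crude K562 extract in PBS pH 7.4 with 1 mM MgCl2, at 1 mg/mL protein, was treated with 10 μM compound for 30 min and heated in aliquots for 3 min across 48°C-58°C. After pooling, adjustment to 0.5% NP-40 at 4°C and centrifugation at 21,000xg for 90 min, supernatant protein was measured by TMTpro 16plex LC-MS/MS with channel sums equalised.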

erlotinib = compound: C#Cc1cccc(Nc2ncnc3cc(OCCOC)c(OCCOC)cc23)c1 [erlotinib]
Summary of the method: as §1

[2] = compound: C1=CC(=CC=C1C2=NC3=C(N2)C=C(C=C3)C(=O)N)OC4=CC=C(C=C4)Cl
Summary of the method: as §1

[3] = compound: C1=CC=C(C=C1)C2=NC(=C(N2)C3=CC=NC=C3)C4=CC(=C(C=C4)Cl)O
Summary of the method: as §1

IRAK-1-4 Inhibitor I = compound: C1COCCN1CCN2C3=CC=CC=C3N=C2NC(=O)C4=CC(=CC=C4)[N+](=O)[O-] [IRAK-1-4 Inhibitor I]
Summary of the method: as §1

[4] = compound: C1CCN(C1)C(=O)NC2=CC=CC(=C2)NC3=NC=C(C(=N3)NCCC4=CN=CN4)Br
Summary of the method: as §1

[5] = compound: C1CN(CCC1(CC2=CC=C(C=C2)Cl)N)C3=NC=NC4=C3C=CN4
Summary of the method: as §1

[6] = compound: C/C(=N\NC(=O)C1=CC(=CC=C1)S(=O)(=O)N2CCOCC2)/C3=C(C=CC(=C3)Cl)O
Summary of the method: as §1

[7] = compound: C1=CC2=C(C=CC(=C2)/C=C\3/C(=O)NC(=NCC4=CC=CS4)S3)N=C1
Summary of the method: as §1

[8] = compound: C1=CC=C2C(=C1)C3=NNC4=CC=CC(=C43)C2=O
Summary of the method: as §1

Measured: log2 fold change

RSC1A1 (UniProt Q92681)
inactive: [1] -0.109

RXRA (UniProt P19793)
inactive: erlotinib 0.102 | [2] 0.008 | [3] -0.025 | IRAK-1-4 Inhibitor I 0.113

RPS19BP1 (UniProt Q86WX3)
inactive: [4] -0.159 | [5] -0.042

RRN3 (UniProt Q9NYV6)
inactive: [6] -0.107 | [7] -0.123 | [1] 0.346 | [3] 0.045 | [8] -0.096 | [4] -0.011 | [5] -0.041 | IRAK-1-4 Inhibitor I 0.019

RPS6KA5 (UniProt O75582)
inactive: erlotinib -0.036 | [6] -0.161 | [2] 0.2 | [7] 0.014 | [3] 0.023 | [8] 0.152 | [4] -0.02 | [5] -0.11 | IRAK-1-4 Inhibitor I 0.014

RTL8A (UniProt Q9BWD3)
inactive: [6] -0.081 | [7] -0.021 | [8] 0.002 | [4] 0.187 | [5] -0.238

S100A10 (UniProt P60903)
inactive: erlotinib 0.094 | [2] -0.053 | [1] 0.184 | [3] -0.254 | IRAK-1-4 Inhibitor I -0.312

RPL37A (UniProt P61513)
inactive: erlotinib -0.012 | [6] -0.067 | [2] -0.006 | [7] -0.011 | [1] -0.03 | [3] 0.03 | [8] 0.064 | [4] 0.039 | [5] -0.035 | IRAK-1-4 Inhibitor I -0.023

S100A7A (UniProt Q86SG5)
inactive: erlotinib 0.42 | [2] -0.26

RUFY2 isoform 1 (UniProt Q8WXA3)
inactive: [6] -0.117 | [7] 0.02 | [1] 0.016 | [3] -0.099 | [8] 0 | [4] -0.01 | [5] 0.041 | IRAK-1-4 Inhibitor I 0.05

RPS6KB2 (UniProt Q9UBS0)
inactive: erlotinib -0.015 | [2] -0.154 | [4] -0.058 | [5] -0.061

Two records drawn at random from those above:
S100A7A (UniProt Q86SG5)
inactive: erlotinib 0.42 | [2] -0.26

RPL37A (UniProt P61513)
inactive: erlotinib -0.012 | [6] -0.067 | [2] -0.006 | [7] -0.011 | [1] -0.03 | [3] 0.03 | [8] 0.064 | [4] 0.039 | [5] -0.035 | IRAK-1-4 Inhibitor I -0.023

Following part:

RUFY3 isoform 3 (UniProt Q7L099)
inactive: erlotinib -0.001 | [6] -0.008 | [2] 0.027 | [7] -0.005 | [1] -0.012 | [3] -0.015 | [8] -0.001 | [4] 0.022 | [5] -0.01 | IRAK-1-4 Inhibitor I -0.001

S100A4 (UniProt P26447)
inactive: erlotinib 0.084 | [6] 0.818 | [2] -0.159 | [7] 0.095 | [3] -0.059 | [8] -0.014 | [4] 0.176 | [5] -0.058 | IRAK-1-4 Inhibitor I 0.038

RPUSD4 (UniProt Q96CM3)
inactive: erlotinib 0.01 | [6] 0.036 | [2] -0.022 | [7] -0.04 | [1] -0.069 | [3] 0.033 | [8] 0.018 | IRAK-1-4 Inhibitor I 0.081

RPS19 (UniProt M0R2L9)
inactive: erlotinib -0.387 | [6] -0.23 | [2] -0.279 | [7] -0.053 | [3] 0.018 | [8] -0.148 | [4] -0.191 | [5] -0.381 | IRAK-1-4 Inhibitor I 0.102

RPUSD1 (UniProt Q9UJJ7)
inactive: [6] 0.099 | [7] -0.194 | [3] -0.007 | [8] -0.119 | [4] 0.206 | [5] -0.092 | IRAK-1-4 Inhibitor I 0.133

RYR1 (UniProt P21817)
inactive: erlotinib -0.077 | [2] -0.174 | [1] 0.012 | [3] -0.025 | [4] -0.029 | [5] -0.057 | IRAK-1-4 Inhibitor I -0.003

RXRB isoform 3 (UniProt P28702)
inactive: erlotinib -0.025 | [6] 0.006 | [2] -0.038 | [7] -0.014 | [1] 0.051 | [8] -0.039 | [4] 0.011 | [5] -0.015

RPS3 (UniProt E9PJN9)
inactive: [6] 0.183 | [7] -0.231 | [3] 0.022 | [8] 0.032 | [4] -0.021 | [5] 0.04 | IRAK-1-4 Inhibitor I 0.022

RTL8C (UniProt A6ZKI3)
inactive: erlotinib -0.052 | [6] 0.125 | [2] -0.084 | [7] 0.114 | [3] 0.07 | [8] -0.076 | [4] 0.217 | [5] 0.046 | IRAK-1-4 Inhibitor I 0.042

RTN4R (UniProt Q9BZR6)
inactive: erlotinib 0.123 | [2] 0.064

RUFY3 isoform 2 (UniProt Q7L099)
inactive: erlotinib 0.078 | [2] 0.032 | [1] -0.022 | [3] -0.167 | IRAK-1-4 Inhibitor I -0.009

RSL24D1 (UniProt Q9UHA3)
inactive: erlotinib 0.068 | [2] 0.024 | [3] 0.064 | [4] 0.01 | [5] 0.153 | IRAK-1-4 Inhibitor I 0.049

S100A16 (UniProt Q96FQ6)
inactive: [1] 0.032

S100A6 (UniProt P06703)
inactive: erlotinib 0.045 | [6] 0.346 | [2] -0.025 | [7] 0 | [3] -0.196 | [8] 0.02 | [4] 0.352 | [5] 0.151 | IRAK-1-4 Inhibitor I -0.209

RPUSD3 (UniProt Q6P087)
inactive: erlotinib -0.068 | [6] -0.1 | [2] -0.084 | [7] 0.024 | [8] 0.021 | [4] -0.034 | [5] -0.105

RTN4 isoform 3 (UniProt Q9NQC3)
inactive: [4] -0.036 | [5] 0.213

RWDD3 (UniProt Q9Y3V2)
inactive: [3] -0.204 | IRAK-1-4 Inhibitor I 0.114

RXYLT1 (UniProt Q9Y2B1)
inactive: erlotinib -0.135 | [2] 0.235 | [3] -0.2 | IRAK-1-4 Inhibitor I 0.155

RPS7, A0A2R8Y623
inactive: erlotinib 0.249 | [6] 0.194 | [2] 0.131 | [7] -0.164 | [1] 0.399 | [8] -0.172 | [4] -0.087 | [5] 0.029

RUNDC1 (UniProt Q96C34)
inactive: erlotinib 0.076 | [2] -0.029 | [1] -0.035 | [3] -0.023 | IRAK-1-4 Inhibitor I -0.097

RTN4, A0A0U1RQR6
inactive: [3] 0.116 | IRAK-1-4 Inhibitor I 0.195

S100A14 (UniProt Q9HCY8)
inactive: erlotinib 0.117 | [2] -0.217 | [1] 0.182 | [3] -0.044 | [4] 0.106 | [5] -0.459 | IRAK-1-4 Inhibitor I -0.119

S100A12 (UniProt P80511)
inactive: [6] 2.52 | [7] 0.026 | [8] -0.007

RRP36 (UniProt Q96EU6)
inactive: erlotinib -0.01 | [6] 0.23 | [2] -0.048 | [7] 0.224 | [3] 0.021 | [8] -0.04 | [4] -0.112 | [5] 0.039 | IRAK-1-4 Inhibitor I -0.001

RPP30 (UniProt Q5VU11)
inactive: [6] -0.362 | [7] -0.052 | [8] 0.053 | [4] 0.015 | [5] -0.185

RPS20 isoform 2 (UniProt P60866)
inactive: erlotinib 0.007 | [6] 0.045 | [2] -0.047 | [7] -0.044 | [1] 0.005 | [3] -0.016 | [8] 0.01 | [4] 0.012 | [5] -0.014 | IRAK-1-4 Inhibitor I -0.034

S100A1 (UniProt P23297)
inactive: erlotinib 0.003 | [6] 0.071 | [2] 0.037 | [7] 0.048 | [3] -0.003 | [8] -0.005 | [4] 0.051 | [5] 0.045 | IRAK-1-4 Inhibitor I -0.051

RPS6KA3 (UniProt P51812)
inactive: erlotinib -0.04 | [6] -0.003 | [2] 0.182 | [1] 0.004 | [3] 0.026 | [8] 0.328 | [4] 0.082 | [5] -0.043 | IRAK-1-4 Inhibitor I -0.019

RUSC2 (UniProt Q8N2Y8)
inactive: erlotinib -0.005 | [6] -0.041 | [2] 0.056 | [7] -0.207 | [1] -0.123 | [3] 0.175 | [8] -0.024 | IRAK-1-4 Inhibitor I -0.237
